Measured values: paper PMC11237027
Results are given in words; binding and its absence hold for the method and conditions named. Binding seen in cells or lysates may run through a third protein. Some results given as binding are weak or reduced against the parent protein; the word gives no strength. Tags and fused reporters may be left off the sequences shown.

Biological target: T1, BON-ASSOCIATED PROTEIN2 (BAP2) fused to GST at the N-terminus (Arabidopsis thaliana) (UniProt Q58FX0)
T1 sequence: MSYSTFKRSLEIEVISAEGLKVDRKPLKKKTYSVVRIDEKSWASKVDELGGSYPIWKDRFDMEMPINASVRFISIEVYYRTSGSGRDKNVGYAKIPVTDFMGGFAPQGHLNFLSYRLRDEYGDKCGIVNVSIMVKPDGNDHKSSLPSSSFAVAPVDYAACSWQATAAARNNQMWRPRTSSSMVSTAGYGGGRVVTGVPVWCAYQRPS
Assay: pull-down; GST fusions from E. coli extracts bound to glutathione agarose (30 min on ice), then incubated with E. coli protein extracts of the His-tagged proteins; equilibration buffer 125 mM Tris-HCl, 150 mM sodium chloride, pH 8.0; Western blot with anti-His and anti-GST; only the target purified

- binding: binds
B1: BON1 fused to His6 at the N-terminus (protein, UniProt Q941L3 1-578)
chain: MGNCCSDVASGAGATAGVGGSGSSAALGATNDALDYYLKSKGFNGLFSQIELSFSASNLRDRDVLSKSDPMVVVYQKEKDATLSEVFRSEVVLNSLAPKWIKKFIVAYHFETVQTLVFRVYDVDTKFQNSREEMLKLDEQQFLGEATCALSEIITKSTRTSTLELKRKDGFAPQAQPHHGKLIIHAEESLASKISTEIVFRCSNLESKDLFSKSDPFLVVSKIVEHGTPIPVSKTEVRKNDLNPIWKPVFLSVQQVGSKDSPVIIECSDFNSNGKHSLIGKVQKSLSDLEKLHLAGQGINFSLPTGAGQNKVLKSQLFVDKFTETVHHTFLEYLASGFELNFMVAIDFTASNGNPRLPDSLHYIDPSGRLNAYQRAIMDVGEVLQFYDSDKRFPAWGFGARPIDAPVSHCFNLNGSSSYSEVDGIQGIMTSYTSALFNVSLAGPTLFGPVINAAAMIASASLAQGSRKYYVLLIITDGVITDLQETKDALVSASDLPLSILIVGVGGADFKEMEILDADKGERLESSSGRLASRDIVQFVALRDVQYGEISVVQALLAELPSQFLTYMRIRNMKPIPP
